From the supplement of paper PMC4635364
The other results are listed elsewhere or left out. Repeats in this data set agree poorly, so a single value says little.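 Cells: ReNCell VM human fetal ventral-midbrain neural progenitors, differentiated mitogen-free. Blinded raters compared doublecortin-stained (early neurons) or tyrosine hydroxylase-stained (dopaminergic neurons) images with untreated wells, where 0 means no change. After repeats and both raters were averaged, compounds scoring 2 or above became hits for retesting.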

Legend:
ReNCell VM [1] = assay: neuronal differentiation score (DCX+ cell fraction vs untreated, manual image score) (score (-3 to 3)); higher = more neuronal differentiation; settings: 2 uM, 2 weeks
ReNCell VM [2] = assay: dopaminergic neuron differentiation score (TH+ cell fraction vs untreated, manual image score) (score (0 to 3)); higher = more TH+ dopaminergic neuron differentiation; settings: 2 uM, 4 weeks, BDNF 10 ng/ml + GDNF 10 ng/ml

C[N+]1(C)CCC(OC(=O)C(O)(c2ccccc2)C2CCCC2)C1 (configuration not stated) [Glycopyrrolate]
neuronal differentiation score (ReNCell VM [1]; library: Prestwick): inactive: 0 | dopaminergic neuron differentiation score (ReNCell VM [2]; library: Prestwick): inactive: 0

C[C@H]1C[C@H]2[C@@H]3CCC4=CC(=O)C=C[C@]4(C)[C@@]3(F)[C@@H](O)C[C@]2(C)[C@@]1(O)C(=O)COP(=O)(O)O
neuronal differentiation score (ReNCell VM [1]; library: Spectrum): inactive: 0 | dopaminergic neuron differentiation score (ReNCell VM [2]; library: Spectrum): inactive: 0

COC(=O)C[C@H]1C(C)(C)C2(O)OC34CC2C(=O)[C@]1(C)C3CC[C@]1(C)C4=CC(=O)O[C@H]1c1ccoc1 (stereo partly drawn) [8beta-HYDROXYCARAPIN, 3,8-HEMIACETAL]
neuronal differentiation score (ReNCell VM [1]; library: Spectrum): inactive: 0 | dopaminergic neuron differentiation score (ReNCell VM [2]; library: Spectrum): active: 3

Cn1c(=O)c2[nH]c(-c3ccc(S(=O)(=O)O)cc3)nc2n(C)c1=O [8-(p-Sulfophenyl)theophylline]
neuronal differentiation score (ReNCell VM [1]; library: LOPAC): inactive: 0 | dopaminergic neuron differentiation score (ReNCell VM [2]; library: LOPAC): inactive: 0

CC(O)C(=O)O.N (configuration not stated)
neuronal differentiation score (ReNCell VM [1]; library: Spectrum): inactive: 0 | dopaminergic neuron differentiation score (ReNCell VM [2]; library: Spectrum): inactive: 0

CC(C)(C)n1nc(-c2cccc3ccccc23)c2c(N)ncnc21 [1-Naphthyl PP1]
neuronal differentiation score (ReNCell VM [1]; library: Tocriscreen): inactive: 0 | dopaminergic neuron differentiation score (ReNCell VM [2]; library: Tocriscreen): active: 3

O=c1c(-c2ccc(O)cc2)coc2c([C@@H]3O[C@H](CO)[C@@H](O)[C@H](O)[C@H]3O)c(O)ccc12
neuronal differentiation score (ReNCell VM [1]; library: Spectrum): inactive: 0 | dopaminergic neuron differentiation score (ReNCell VM [2]; library: Spectrum): inactive: 0

O=C(O)c1cc(=O)c2cccc(O)c2[nH]1 [Xanthurenic Acid]
neuronal differentiation score (ReNCell VM [1]; library: Phytochemical): inactive: 0 | dopaminergic neuron differentiation score (ReNCell VM [2]; library: Phytochemical): inactive: 0

CC1Oc2ccccc2C=C1/C=C/C(=O)O (configuration not stated) [3-(2-methyl-2h-chromen-3-yl)-acrylic acid]
neuronal differentiation score (ReNCell VM [1]; library: Natural): inactive: -1 | dopaminergic neuron differentiation score (ReNCell VM [2]; library: Natural): inactive: 0

CNC[C@H](O)c1ccc(O)c(O)c1
neuronal differentiation score (ReNCell VM [1]; library: Spectrum): inactive: 0 | dopaminergic neuron differentiation score (ReNCell VM [2]; library: Spectrum): inactive: 0

COc1ccccc1OCC(O)COC(N)=O (configuration not stated) [Methocarbamol]
neuronal differentiation score (ReNCell VM [1]; library: Prestwick): inactive: 0 | dopaminergic neuron differentiation score (ReNCell VM [2]; library: Prestwick): inactive: 0
